Structures are written as SMILES. Values joined by “and” are separate entries in the source; they are usually repeats but may differ in a detail not shown here. Equal entries are not always repeated. The list shows a part of the results. Further columns of the screen follow, without active or inactive calls. Compounds called inactive in the main read-out are mostly missing here. The note in brackets gives the kind of curve behind each potency; many fits are weak.

The term AC50 denotes the concentration at which the activity in the assay is half-maximal.

A short description of this assay: Cell signaling CRE-BLA (Fsk stim). The conditions noted are these: CHO CRE-bla reporter (cAMP response element driving beta-lactamase), forskolin EC10, beta-lactamase ratio; measured here: 460 nm blue channel. The essentials: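 CRE-bla CHO reporter cells treated with compound titration plus EC10 NKH 477 (water-soluble forskolin), incubated 3 h at 37 °C; CCF4 loading 2 h at room temperature, 460/530 nm emission ratio read, AC50 values derived for positive or negative modulators.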
Consider `C/C(Cl)=C\Cn1c(N2CCCC2)nc2c1c(=O)[nH]c(=O)n2C`, for which the AC50 is 1 µM [rising, partial curve]. The figure for `CCC1Oc2ccc(C)cc2N(Cc2cccc(C)c2)C1=O` (stereo not drawn) is 25.1 µM [rising, single point]; for `NS(=O)(=O)c1ccc(NC(=O)CCc2ccccc2)cc1` it is 25.1 µM [falling, single point]; for `COc1cccc(-c2cc(C(=O)Nc3cc(OC)c(OC)c(OC)c3)no2)c1` it is 6.31 µM [rising, partial curve, poor fit]. The figure for `CCOc1cc(C)c(C(C)C)cc1S(=O)(=O)N1CCN(C)CC1` is 5.01 µM [falling, partial curve]; for `C=CCn1c(C)cc(C(=O)COC(=O)COc2ccccc2C#N)c1C` it is 0.0501 µM [falling, full curve, poor fit]; for `C=C1C(=O)O[C@@H]2[C@H]3O[C@]3(C)CCC=C(C)CC[C@@H]12` it is 25.1 µM [falling, single point] and 12.6 µM [falling, partial curve]. On to `CCOC(=O)c1c(C)[nH]c(C(=O)Cn2nnc(-c3ccccc3Cl)n2)c1C`, for which the AC50 was 10 µM [rising, partial curve]. In the case of `CCOC(=O)c1cc2c(=O)n3cccc(C)c3nc2n(Cc2ccco2)c1=NC(=O)c1cccnc1`, the AC50 is 12.6 µM [rising, partial curve]. The value for `CCn1cc(C(=O)N2CCN(C(=O)c3ccco3)CC2)c2cc(OC)c(OC)cc2c1=O` was 10 µM [rising, partial curve]; that for `O=c1oc2c3c(nn2c2ccccc12)CCCC3` was 15.8 µM [rising, single point]; that for `CCOc1cc(-c2conc2N)cc(OCC)c1OCC` was 7.94 µM [rising, partial curve]. The value for `Cn1c(=O)c2c(nc(CN3CCC(C(N)=O)CC3)n2CCc2ccccc2)n(C)c1=O` was 12.6 µM [rising, single point].

On to `COC(=O)c1ccccc1NC(=O)c1sc(N)nc1C`, for which the half-maximal activity concentration (AC50) was 10 µM [rising, partial curve].

For `CC(C)Nc1nc(NC(C)C)nc(N(C)C(N)=O)n1`, the AC50 is 10 µM [rising, partial curve]. The figure for `COCCCN(C(C)=O)c1nc(-c2ccc(OC)cc2)cs1` is 10 µM [rising, partial curve]. As for `Clc1ccccc1-c1ccc2ncnc(NCCN3CCOCC3)c2c1`, the AC50 was 6.31 µM [rising, partial curve]. For the compound `O=S(=O)(NCC(c1cccnc1)N1CCOCC1)c1cccs1` (stereo not drawn), the AC50 is 10 µM [rising, partial curve]. For the compound `CCNc1ncc2nc(-c3cc(F)cc(F)c3)c(=O)n(-c3ccc(OC)cc3)c2n1`, the AC50 was 1.58 µM [rising, partial curve]. Consider `Cc1nc2oc3ccccc3c(=O)c2c(=O)n1Cc1ccccc1`, for which the AC50 was 12.6 µM [rising, single point]. The figure for `CC1CCN(C(=O)c2scc3c2OCCO3)CC1` is 25.1 µM [falling, single point]; for `OCC#CCSc1nnc(-c2ccc(Br)cc2)o1` it is 25.1 µM [rising, single point]. Take `Cc1ccnc(Nc2nc(-c3c(C)nc4sccn34)cs2)c1`: the AC50 was 25.1 µM [falling, single point]. Consider `CCOc1ccc2nc(NCCNC(=O)Nc3ccccc3)c(C#N)cc2c1`, for which the AC50 was 12.6 µM [rising, partial curve].

Consider `Cc1nc2cnc(Oc3cccc(Cl)c3)nc2n(CCc2ccccc2)c1=O`, for which the AC50 is 12.6 µM [rising, partial curve]. Consider `CCN(CC)c1ccc2c(c1)oc(=O)c1c(Cl)cc(=O)oc12`, for which the AC50 was 10 µM [rising, partial curve]. The figure for `CN(CCOc1ccc(C[C@H](Nc2ccccc2C(=O)c2ccccc2)C(=O)O)cc1)c1ccccn1` is 12.6 µM [falling, single point]; for `O=C(CSc1nnc(-c2ccc(Br)o2)n1Cc1ccccc1)c1ccccc1F` it is 15.8 µM [rising, single point]; for `O=C(CSc1ccc2nnc(-c3ccccc3)n2n1)NCC1CCCO1` (stereo not drawn) it is 5.01 µM [rising, single point]. The value for `O=C(O)C1CCCCC1C(=O)OCCCCOC(=O)C1CCCCC1C(=O)O` (stereo not drawn) was 0.631 µM [falling, full curve, poor fit]. The value for `O=C(CSc1nc2c(sc3ccccc32)c(=O)n1Cc1ccco1)NCC1CCCO1` (stereo not drawn) was 10 µM [rising, partial curve].

`c1ccc(CCc2nn3c(Cn4cnc5ccccc54)nnc3s2)cc1`: the AC50 is 10 µM [rising, single point]. For the compound `Cc1c(C#N)c(SCC(N)=O)nc2c1CCCC2`, the AC50 is 0.126 µM [falling, single point]. The figure for `Cc1nc2sc3c(c2c(=O)[nH]1)CCCC3` is 3.98 µM [rising, single point]; for `Cn1c2c(c(=O)n(C)c1=O)CN(Cc1ccc3c(c1)OCO3)CN2` it is 25.1 µM [rising, single point]. The figure for `CCc1nc(N[C@@H](Cc2c[nH]c3ccccc23)C(=O)O)c2oc3ccccc3c2n1` is 12.6 µM [rising, single point]. The value for `COc1ccc(-c2csc(/C(C#N)=C(\O)CSc3nccn3C)n2)cc1OC` was 10 µM [rising, single point]; that for `N#C[C@@H]1[C@@H]2C(=O)N(c3ccc4c(c3)OCCO4)C(=O)[C@@H]2C2c3ccccc3C=CN21` (stereo partly drawn) was 25.1 µM [falling, single point]; that for `CCOC(=O)c1c(C(=O)OCC)c(C)n(N2C(=O)CSC2=S)c1C` was 0.00316 µM [falling, full curve, poor fit]. For the compound `N#Cc1nc(Cc2cccc3ccccc23)oc1NCCN1CCCCC1`, the AC50 is 25.1 µM [falling, single point]. The figure for `COc1cc(NS(=O)(=O)c2ccc(NC(C)=O)cc2)cc(OC)c1` is 10 µM [falling, single point]; for `Cn1c(=O)n(C)c2cc(C(=O)Nc3ccc4c(c3)OCO4)ccc21` it is 25.1 µM [rising, single point]; for `CCC(=O)Nc1c(C)ccc2nsnc12` it is 0.00398 µM [falling, full curve, poor fit].
